The record followed here is patent US20220074941A1, “HSP90 COMBINATION THERAPY” (Sloan-Kettering Institute for Cancer Research, priority 2011, published 2022).

This data set deals with Hsp90 complexes in K562 cell extract. The data set is described as follows: Nano-LC-MS/MS of PU-beads pull-downs. In kind it is binding. Conditions: for Matched Peptides by Fraction JA06: Run1, gel size cut 40-60; for Matched Peptides by Fraction JA13: Run2, gel size cut 40-60; for MAXIMUM matched peptides: maximum over fractions JA01-JA14; for Total fmol: protein isolated in PU-beads pull-downs, Waters Xevo QTof MS; for Matched Peptides by Fraction JA03: Run1, gel size cut 110-150; for Matched Peptides by Fraction JA10: Run2, gel size cut 110-150; for Matched Peptides by Fraction JA05: Run1, gel size cut 60-80. In a few lines: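 Proteins were identified by data-dependent nano LC-MS/MS (QTof, ESI) and Mascot searching (p<0.05), then reported as spectral counts and coverage via Scaffold. Inputs were PU-bead versus control-bead pull-downs from lysate pre-cleared with control beads overnight at 4 °C, eluted by boiling in 2% SDS.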

B1: Serine/threonine-protein phosphatase 2A 55 kDa regulatory subunit B delta isoform (protein, UniProt Q66LE6 1-453, looked up)
Serine/threonine-protein …: MAGAGGGGCPAGGNDFQWCFSQVKGAIDEDVAEADIISTVEFNYSGDLLATGDKGGRVVIFQREQENKSRPHSRGEYNVYSTFQSHEPEFDYLKSLEIEEKINKIRWLPQQNAAHFLLSTNDKTIKLWKISERDKRAEGYNLKDEDGRLRDPFRITALRVPILKPMDLMVEASPRRIFANAHTYHINSISVNSDHETYLSADDLRINLWHLEITDRSFNIVDIKPANMEELTEVITAAEFHPHQCNVFVYSSSKGTIRLCDMRSSALCDRHSKFFEEPEDPSSRSFFSEIISSISDVKFSHSGRYMMTRDYLSVKVWDLNMESRPVETHQVHEYLRSKLCSLYENDCIFDKFECCWNGSDSAIMTGSYNNFFRMFDRDTRRDVTLEASRESSKPRASLKPRKVCTGGKRRKDEISVDSLDFNKKILHTAWHPVDNVIAVAATNNLYIFQDKIN
With B1, the Total fmol amounted to 5.9742 fmol. Besides, for the setting “PU-beads pull-down”, the “Matched Peptides by Fraction JA06” value is reported as 13, the “Matched Peptides by Fraction JA13” value is on record as 10 and the MAXIMUM matched peptides worked out at 13.

B2: Cell division protein kinase 7 (protein, UniProt P50613 2-346, looked up)
Cyclin-dependent kinase 7: ALDVKSRAKRYEKLDFLGEGQFATVYKARDKNTNQIVAIKKIKLGHRSEAKDGINRTALREIKLLQELSHPNIIGLLDAFGHKSNISLVFDFMETDLEVIIKDNSLVLTPSHIKAYMLMTLQGLEYLHQHWILHRDLKPNNLLLDENGVLKLADFGLAKSFGSPNRAYTHQVVTRWYRAPELLFGARMYGVGVDMWAVGCILAELLLRVPFLPGDSDLDQLTRIFETLGTPTEEQWPDMCSLPDYVTFKSFPGIPLHHIFSAAGDDLLDLIQGLFLFNPCARITATQALKMKYFSNRPGPTPGCQLPRPNCPVETLKEQSNPALAIKRKRTEALEQGGLPKKLIF
Molecule B2 gave a Total fmol of 3.8042 fmol. For the same molecule, where the note is “PU-beads pull-down”, the “Matched Peptides by Fraction JA06” value stood at 6, the “Matched Peptides by Fraction JA13” value is listed as 9 and the MAXIMUM matched peptides was 9.

B3: Serine/threonine-protein phosphatase 4 regulatory subunit 1 (protein, UniProt Q8TF05 1-950, looked up)
Serine/threonine-protein …: MADLSLLQEDLQEDADGFGVDDYSSESDVIIIPSALDFVSQDEMLTPLGRLDKYAASENIFNRQMVARSLLDTLREVCDDERDCIAVLERISRLADDSEPTVRAELMEQVPHIALFCQENRPSIPYAFSKFLLPIVVRYLADQNNQVRKTSQAALLALLEQELIERFDVETKVCPVLIELTAPDSNDDVKTEAVAIMCKMAPMVGKDITERLILPRFCEMCCDCRMFHVRKVCAANFGDICSVVGQQATEEMLLPRFFQLCSDNVWGVRKACAECFMAVSCATCQEIRRTKLSALFINLISDPSRWVRQAAFQSLGPFISTFANPSSSGQYFKEESKSSEEMSVENKNRTRDQEAPEDVQVRPEDTPSDLSVSNSSVILENTMEDHAAEASGKPLGEISVPLDSSLLCTLSSESHQEAASNENDKKPGNYKSMLRPEVGTTSQDSALLDQELYNSFHFWRTPLPEIDLDIELEQNSGGKPSPEGPEEESEGPVPSSPNITMATRKELEEMIENLEPHIDDPDVKAQVEVLSAALRASSLDAHEETISIEKRSDLQDELDINELPNCKINQEDSVPLISDAVENMDSTLHYIHSDSDLSNNSSFSPDEERRTKVQDVVPQALLDQYLSMTDPSRAQTVDTEIAKHCAYSLPGVALTLGRQNWHCLRETYETLASDMQWKVRRTLAFSIHELAVILGDQLTAADLVPIFNGFLKDLDEVRIGVLKHLHDFLKLLHIDKRREYLYQLQEFLVTDNSRNWRFRAELAEQLILLLELYSPRDVYDYLRPIALNLCADKVSSVRWISYKLVSEMVKKLHAATPPTFGVDLINELVENFGRCPKWSGRQAFVFVCQTVIEDDCLPMDQFAVHLMPHLLTLANDRVPNVRVLLAKTLRQTLLEKDYFLASASCHQEAVEQTIMALQMDRDSDVKYFASIHPASTKISEDAMSTASSTY
The molecule B3 returned a Total fmol of 9.6747 fmol. Besides, under “PU-beads pull-down”, the “Matched Peptides by Fraction JA03” value worked out at 13, the “Matched Peptides by Fraction JA10” value was 15 and the MAXIMUM matched peptides is listed as 15.

B4: 28 kDa heat- and acid-stable phosphoprotein (protein, UniProt Q13442 1-181, looked up)
28 kDa heat- and acid-stable …: MPKGGRKGGHKGRARQYTSPEEIDAQLQAEKQKAREEEEQKEGGDGAAGDPKKEKKSLDSDESEDEEDDYQQKRKGVEGLIDIENPNRVAQTTKKVTQLDLDGPKELSRREREEIEKQKAKERYMKMHLAGKTEQAKADLARLAIIRKQREEAARKKEEERKAKDDATLSGKRMQSLSLNK
With B4, the Total fmol turned out to be 3.7688 fmol. For the same molecule, the “Matched Peptides by Fraction JA07” value (PU-beads pull-down, Run1, gel size cut <40) was determined as 2. The MAXIMUM matched peptides (PU-beads pull-down) worked out at 2.

B5: Cell division control protein 45 homolog (protein, UniProt O75419 1-566, looked up)
Cell division control protein …: MFVSDFRKEFYEVVQSQRVLLFVASDVDALCACKILQALFQCDHVQYTLVPVSGWQELETAFLEHKEQFHYFILINCGANVDLLDILQPDEDTIFFVCDTHRPVNVVNVYNDTQIKLLIKQDDDLEVPAYEDIFRDEEEDEEHSGNDSDGSEPSEKRTRLEEEIVEQTMRRRQRREWEARRRDILFDYEQYEYHGTSSAMVMFELAWMLSKDLNDMLWWAIVGLTDQWVQDKITQMKYVTDVGVLQRHVSRHNHRNEDEENTLSVDCTRISFEYDLRLVLYQHWSLHDSLCNTSYTAARFKLWSVHGQKRLQEFLADMGLPLKQVKQKFQAMDISLKENLREMIEESANKFGMKDMRVQTFSIHFGFKHKFLASDVVFATMSLMESPEKDGSGTDHFIQALDSLSRSNLDKLYHGLELAKKQLRATQQTIASCLCTNLVISQGPFLYCSLMEGTPDVMLFSRPASLSLLSKHLLKSFVCSTKNRRCKLLPLVMAAPLSMEHGTVTVVGIPPETDSSDRKNFFGRAFEKAAESTSSRMLHNHFDLSVIELKAEDRSKFLDALISLLS
B5 yielded a Total fmol of 13.0274 fmol. Besides, under “PU-beads pull-down”, the “Matched Peptides by Fraction JA05” value came to 14 and the MAXIMUM matched peptides is 14. For the setting “PU-beads pull-down, Run2, gel size cut 60-80”, the “Matched Peptides by Fraction JA12” value amounted to 14.

B6: Mitogen-activated protein kinase 4; ERK4 (protein, UniProt P31152 1-587, looked up)
Mitogen-activated protein …: MAEKGDCIASVYGYDLGGRFVDFQPLGFGVNGLVLSAVDSRACRKVAVKKIALSDARSMKHALREIKIIRRLDHDNIVKVYEVLGPKGTDLQGELFKFSVAYIVQEYMETDLARLLEQGTLAEEHAKLFMYQLLRGLKYIHSANVLHRDLKPANIFISTEDLVLKIGDFGLARIVDQHYSHKGYLSEGLVTKWYRSPRLLLSPNNYTKAIDMWAAGCILAEMLTGRMLFAGAHELEQMQLILETIPVIREEDKDELLRVMPSFVSSTWEVKRPLRKLLPEVNSEAIDFLEKILTFNPMDRLTAEMGLQHPYMSPYSCPEDEPTSQHPFRIEDEIDDIVLMAANQSQLSNWDTCSSRYPVSLSSDLEWRPDRCQDASEVQRDPRAGSAPLAEDVQVDPRKDSHSSSERFLEQSHSSMERAFEADYGRSCDYKVGSPSYLDKLLWRDNKPHHYSEPKLILDLSHWKQAAGAPPTATGLADTGAREDEPASLFLEIAQWVKSTQGGPEHASPPADDPERRLSASPPGRPAPVDGGASPQFDLDVFISRALKLCTKPEDLPDNKLGDLNGACIPEHPGDLVQTEAFSKERW
Molecule B6 returned a Total fmol of 1.9160 fmol. Further, where the note is “PU-beads pull-down”, the “Matched Peptides by Fraction JA06” value is given as 7, the “Matched Peptides by Fraction JA13” value turned out to be 6 and the MAXIMUM matched peptides is 7.

B7: Mitogen-activated protein kinase 8; JNK1; SAPK1 (protein, UniProt P45983 1-427, looked up)
Mitogen-activated protein …: MSRSKRDNNFYSVEIGDSTFTVLKRYQNLKPIGSGAQGIVCAAYDAILERNVAIKKLSRPFQNQTHAKRAYRELVLMKCVNHKNIIGLLNVFTPQKSLEEFQDVYIVMELMDANLCQVIQMELDHERMSYLLYQMLCGIKHLHSAGIIHRDLKPSNIVVKSDCTLKILDFGLARTAGTSFMMTPYVVTRYYRAPEVILGMGYKENVDLWSVGCIMGEMVCHKILFPGRDYIDQWNKVIEQLGTPCPEFMKKLQPTVRTYVENRPKYAGYSFEKLFPDVLFPADSEHNKLKASQARDLLSKMLVIDASKRISVDEALQHPYINVWYDPSEAEAPPPKIPDKQLDEREHTIEEWKELIYKEVMDLEERTKNGVIRGQPSPLGAAVINGSQHPSSSSSVNDVSSMSTDPTLASDTDSSLEAAAGPLGCCR
B7 yielded a Total fmol of 6.6247 fmol. Under “PU-beads pull-down”, the “Matched Peptides by Fraction JA06” value is 13, the “Matched Peptides by Fraction JA13” value was found to be 6 and the MAXIMUM matched peptides was determined as 13.

B8: Serine/threonine-protein kinase SRPK1 (protein, UniProt Q96SB4 1-655, looked up)
SRSF protein kinase 1: MERKVLALQARKKRTKAKKDKAQRKSETQHRGSAPHSESDLPEQEEEILGSDDDEQEDPNDYCKGGYHLVKIGDLFNGRYHVIRKLGWGHFSTVWLSWDIQGKKFVAMKVVKSAEHYTETALDEIRLLKSVRNSDPNDPNREMVVQLLDDFKISGVNGTHICMVFEVLGHHLLKWIIKSNYQGLPLPCVKKIIQQVLQGLDYLHTKCRIIHTDIKPENILLSVNEQYIRRLAAEATEWQRSGAPPPSGSAVSTAPQPKPADKMSKNKKKKLKKKQKRQAELLEKRMQEIEEMEKESGPGQKRPNKQEESESPVERPLKENPPNKMTQEKLEESSTIGQDQTLMERDTEGGAAEINCNGVIEVINYTQNSNNETLRHKEDLHNANDCDVQNLNQESSFLSSQNGDSSTSQETDSCTPITSEVSDTMVCQSSSTVGQSFSEQHISQLQESIRAEIPCEDEQEQEHNGPLDNKGKSTAGNFLVNPLEPKNAEKLKVKIADLGNACWVHKHFTEDIQTRQYRSLEVLIGSGYNTPADIWSTACMAFELATGDYLFEPHSGEEYTRDEDHIALIIELLGKVPRKLIVAGKYSKEFFTKKGDLKHITKLKPWGLFEVLVEKYEWSQEEAAGFTDFLLPMLELIPEKRATAAECLRHPWLNS
As for B8, the Total fmol is listed as 7.2125 fmol. Under “PU-beads pull-down”, the “Matched Peptides by Fraction JA03” value came out at 6, the “Matched Peptides by Fraction JA10” value was 10 and the MAXIMUM matched peptides is on record as 10.

B9: Autophagy protein 5 (protein, UniProt Q9H1Y0 1-275, looked up)
Autophagy protein 5: MTDDKDVLRDVWFGRIPTCFTLYQDEITEREAEPYYLLLPRVSYLTLVTDKVKKHFQKVMRQEDISEIWFEYEGTPLKWHYPIGLLFDLLASSSALPWNITVHFKSFPEKDLLHCPSKDAIEAHFMSCMKEADALKHKSQVINEMQKKDHKQLWMGLQNDRFDQFWAINRKLMEYPAEENGFRYIPFRIYQTTTERPFIQKLFRPVAADGQLHTLGDLLKEVCPSAIDPEDGEKKNQVMIHGIEPMLETPLQWLSEHLSYPDNFLHISIIPQPTD
Regarding B9, the Total fmol turned out to be 2.0138 fmol. For the same molecule, where the note is “PU-beads pull-down”, the “Matched Peptides by Fraction JA05” value came out at 9 and the MAXIMUM matched peptides was 9.
